From PMC3154933, “The Nucleotide Exchange Factor Ric-8A Is a Chaperone for the Conformationally Dynamic Nucleotide-Free State of Gαi1” (PLoS ONE, 2011)
No constants are given. Whether binding was seen depends on the method and setting. Some binding calls cover weakened binding; strength is not graded here.

The chains behind the UniProt entries cited, without tags or fusion partners. Where a name states a change or a piece, a line headed by the entry shows the natural chain unless it says otherwise.
UniProt P10824: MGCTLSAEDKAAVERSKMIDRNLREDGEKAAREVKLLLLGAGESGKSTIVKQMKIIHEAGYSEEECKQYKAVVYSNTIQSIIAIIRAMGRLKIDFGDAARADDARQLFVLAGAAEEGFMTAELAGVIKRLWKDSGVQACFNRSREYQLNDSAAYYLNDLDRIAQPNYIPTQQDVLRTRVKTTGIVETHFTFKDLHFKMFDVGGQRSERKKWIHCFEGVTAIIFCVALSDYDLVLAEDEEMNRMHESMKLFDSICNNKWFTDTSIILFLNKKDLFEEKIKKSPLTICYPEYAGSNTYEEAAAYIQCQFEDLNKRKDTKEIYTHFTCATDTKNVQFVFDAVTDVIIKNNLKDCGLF

Key:
[1] = target: T1, Ric-8AΔC492 (rat Ric-8A residues 1–492) (rat) (UniProt Q80ZG1); test: differential scanning calorimetry; 25 mM PIPES pH 7.2, 150 mM NaCl, 1 mM TCEP; 5.1 µM complex; 1°C/min from 20 to 70°C; both purified
T1 sequence: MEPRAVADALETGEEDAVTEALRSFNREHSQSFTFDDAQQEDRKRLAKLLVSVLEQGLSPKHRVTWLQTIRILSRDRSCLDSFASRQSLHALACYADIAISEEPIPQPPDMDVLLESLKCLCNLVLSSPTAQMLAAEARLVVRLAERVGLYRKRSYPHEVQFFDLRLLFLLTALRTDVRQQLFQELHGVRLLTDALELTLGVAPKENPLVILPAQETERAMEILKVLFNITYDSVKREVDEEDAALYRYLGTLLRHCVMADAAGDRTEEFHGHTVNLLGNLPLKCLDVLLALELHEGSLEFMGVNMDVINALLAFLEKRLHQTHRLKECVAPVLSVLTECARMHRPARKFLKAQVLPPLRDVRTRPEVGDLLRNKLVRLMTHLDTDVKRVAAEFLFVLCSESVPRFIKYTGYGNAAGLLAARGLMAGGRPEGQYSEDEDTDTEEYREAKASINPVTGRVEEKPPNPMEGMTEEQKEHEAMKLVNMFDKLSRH

[2] = target: T1, Ric-8AΔC492 (rat Ric-8A residues 1–492) (rat); test: SEC; gel filtration of the NMR sample after data collection (data not shown); complex prepared from equimolar proteins with immobilised alkaline phosphatase and run on tandem Superdex 200/75 in 20 mM Tris pH 8.0, 150 mM NaCl, 2 mM DTT; both purified
[3] = target: T1, Ric-8AΔC492 (rat Ric-8A residues 1–492) (rat); test: HDX-MS; whole-protein exchange; ten-fold dilution of 1 mg/ml Gαi1•GDP or Ric-8A:Gαi1[ ] into D2O, 20 mM sodium phosphate pH 6.8, 100 mM NaCl, 1 mM DTT; ESI-TOF; both purified
[4] = target: T1, Ric-8AΔC492 (rat Ric-8A residues 1–492) (rat); test: limited proteolysis (trypsin protection); 50 µM samples, TPCK-trypsin at a 1:1000 molar ratio, 4°C, 50 mM Tris-HCl pH 8.0, 150 mM NaCl, 2 mM DTT; SDS-PAGE and mass spectrometry; both purified
[5] = target: T1, Ric-8AΔC492 (rat Ric-8A residues 1–492) (rat); test: 1H-15N TROSY-HSQC NMR of the complex; [15N]Gαi1:Ric-8A against [15N]Gαi1•GDP, 250 µM, 20 mM sodium phosphate pH 6.8, 75 mM NaCl, 2 mM DTT, 25°C; both purified

binding [1]: binds
binding [2]: binds
binding [3]: binds
binding [4]: binds
binding [5]: binds
Substance: W258A-Gαi1 (non-myristoylated rat Gαi1, Trp 258 to Ala) (from UniProt P10824 1-354)
